The target of one test is Flag-tagged Smurf2 C716A (UniProt Q9HAU4). Kind of test: co-IP; HEK293 cells transfected with Flag-Smurf2 WT, Flag-Smurf2 C716A or empty vector, 48 h; IP with anti-Flag antibody; immunoblot for endogenous CNKSR2. In general terms: In western blotting, separated proteins are transferred to a membrane and probed.
For the next test, the target named is Flag-tagged Smurf2 WT (UniProt Q9HAU4). Described as above.
For test [1], the target named is Smad ubiquitin regulatory factor 2 (Smurf2), endogenous (human (endogenous in MDA-MB-231)) (UniProt Q9HAU4). Kind of test: co-IP; endogenous proteins from MDA-MB-231 lysate (70 mM NaCl, 50 mM Tris pH 8, 0.5% NP-40); IP with rabbit CNKSR2 or rabbit Smurf2 antibody, normal rabbit IgG as control, protein A sepharose; immunoblot.
The target of test [2] is Connector enhancer of kinase suppressor of ras 2 (CNKSR2), endogenous (human (endogenous in MDA-MB-231 and HEK293)) (UniProt Q8WXI2). The description is as above.

By UniProt entry, the sequences of proteins in these tests, tags left out. Where a name states a change or a piece, a line headed by the entry shows the natural chain unless it says otherwise.
UniProt Q9HAU4: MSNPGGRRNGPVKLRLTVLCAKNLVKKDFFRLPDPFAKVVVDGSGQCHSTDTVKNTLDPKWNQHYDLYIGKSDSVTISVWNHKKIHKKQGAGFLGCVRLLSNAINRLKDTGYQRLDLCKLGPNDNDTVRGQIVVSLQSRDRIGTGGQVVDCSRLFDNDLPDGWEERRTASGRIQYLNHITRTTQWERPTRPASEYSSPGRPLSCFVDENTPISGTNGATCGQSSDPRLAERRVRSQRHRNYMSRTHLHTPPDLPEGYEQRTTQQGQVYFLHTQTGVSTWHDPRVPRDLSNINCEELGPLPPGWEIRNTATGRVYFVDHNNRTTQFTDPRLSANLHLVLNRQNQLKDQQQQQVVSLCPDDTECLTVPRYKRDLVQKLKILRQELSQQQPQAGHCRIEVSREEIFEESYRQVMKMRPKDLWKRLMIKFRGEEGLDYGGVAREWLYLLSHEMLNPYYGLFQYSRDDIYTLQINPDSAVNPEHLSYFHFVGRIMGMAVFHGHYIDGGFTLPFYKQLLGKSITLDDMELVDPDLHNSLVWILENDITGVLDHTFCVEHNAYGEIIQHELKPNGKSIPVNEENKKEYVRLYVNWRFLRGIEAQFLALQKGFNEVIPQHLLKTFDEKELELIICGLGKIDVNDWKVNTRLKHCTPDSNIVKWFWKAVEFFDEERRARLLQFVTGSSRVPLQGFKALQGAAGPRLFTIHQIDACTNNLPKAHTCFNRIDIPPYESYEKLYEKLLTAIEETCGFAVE
UniProt Q8WXI2: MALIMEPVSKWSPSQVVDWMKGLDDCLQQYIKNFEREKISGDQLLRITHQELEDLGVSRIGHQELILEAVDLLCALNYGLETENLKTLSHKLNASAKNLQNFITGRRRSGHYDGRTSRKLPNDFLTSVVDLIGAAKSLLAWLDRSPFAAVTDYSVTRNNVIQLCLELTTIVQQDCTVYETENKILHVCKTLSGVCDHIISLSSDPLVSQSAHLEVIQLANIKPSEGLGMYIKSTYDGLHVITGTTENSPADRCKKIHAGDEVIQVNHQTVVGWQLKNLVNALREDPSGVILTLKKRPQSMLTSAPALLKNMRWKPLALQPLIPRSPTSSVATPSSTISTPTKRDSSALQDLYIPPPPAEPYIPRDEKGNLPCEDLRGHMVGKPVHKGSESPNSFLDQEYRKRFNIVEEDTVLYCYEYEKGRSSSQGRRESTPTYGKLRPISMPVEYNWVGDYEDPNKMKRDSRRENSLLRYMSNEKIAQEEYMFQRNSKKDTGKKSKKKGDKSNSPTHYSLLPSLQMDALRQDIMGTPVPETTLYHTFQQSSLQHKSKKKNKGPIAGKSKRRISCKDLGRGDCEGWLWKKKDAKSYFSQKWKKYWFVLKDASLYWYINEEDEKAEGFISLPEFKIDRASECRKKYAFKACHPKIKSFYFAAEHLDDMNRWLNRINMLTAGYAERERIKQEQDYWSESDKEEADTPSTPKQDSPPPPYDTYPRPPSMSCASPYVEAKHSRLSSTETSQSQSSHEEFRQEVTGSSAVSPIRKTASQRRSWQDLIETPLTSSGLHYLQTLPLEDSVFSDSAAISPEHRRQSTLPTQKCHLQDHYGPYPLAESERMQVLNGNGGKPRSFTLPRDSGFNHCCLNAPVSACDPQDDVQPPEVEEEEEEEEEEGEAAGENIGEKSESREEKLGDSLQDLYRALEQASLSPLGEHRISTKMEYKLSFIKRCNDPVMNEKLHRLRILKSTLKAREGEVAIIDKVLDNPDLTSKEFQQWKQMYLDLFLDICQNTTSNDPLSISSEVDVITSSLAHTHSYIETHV
UniProt Q9HCE7: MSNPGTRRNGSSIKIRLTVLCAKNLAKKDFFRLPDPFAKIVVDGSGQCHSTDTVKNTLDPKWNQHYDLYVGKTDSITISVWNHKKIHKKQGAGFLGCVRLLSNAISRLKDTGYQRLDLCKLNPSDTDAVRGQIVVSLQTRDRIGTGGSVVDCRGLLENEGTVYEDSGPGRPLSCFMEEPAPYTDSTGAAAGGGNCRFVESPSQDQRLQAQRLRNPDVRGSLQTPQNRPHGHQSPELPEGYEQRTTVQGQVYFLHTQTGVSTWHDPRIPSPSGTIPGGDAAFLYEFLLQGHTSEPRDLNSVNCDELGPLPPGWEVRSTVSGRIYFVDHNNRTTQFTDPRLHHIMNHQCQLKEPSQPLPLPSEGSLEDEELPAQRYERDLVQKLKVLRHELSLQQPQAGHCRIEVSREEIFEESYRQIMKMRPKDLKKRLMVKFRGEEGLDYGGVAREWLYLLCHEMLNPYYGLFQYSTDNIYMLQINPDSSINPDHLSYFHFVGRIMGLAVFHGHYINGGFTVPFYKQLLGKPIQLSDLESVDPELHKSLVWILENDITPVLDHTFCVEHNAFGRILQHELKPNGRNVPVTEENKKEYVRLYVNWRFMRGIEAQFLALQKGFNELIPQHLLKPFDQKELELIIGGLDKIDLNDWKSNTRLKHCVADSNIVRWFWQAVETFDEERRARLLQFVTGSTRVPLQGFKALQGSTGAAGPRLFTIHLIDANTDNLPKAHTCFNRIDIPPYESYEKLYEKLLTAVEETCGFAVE

No constants are given. Whether binding was seen depends on the method and setting. Binding seen in cells or lysates may run through a third protein. Some entries that bind do so weakly or less than the wild type.

For “Connector enhancer of kinase suppressor of ras 2 (CNKSR2), endogenous (from UniProt Q8WXI2 1-1034)”, the binding entry (with Flag-tagged Smurf2 C716A; with Flag-tagged Smurf2 WT; in test [1]) was “binds” each time.
For “Smad ubiquitin regulatory factor 2 (Smurf2), endogenous (from UniProt Q9HAU4 1-748)”, in test [2], the binding entry is “binds”.
Still for that read-out and setting: the result for “Smurf1, endogenous (from UniProt Q9HCE7 1-757)” reads “no binding”.
